Publication PMC3630886
Results are given in words; binding and its absence hold for the method and conditions named. Binding seen in cells or lysates may run through a third protein. A result given as binding can be weak or reduced; the word gives no strength. For part of these data: Sequences can lack the tags named with a protein.

Chains of the proteins cited; added tags and fusions are not shown. Lines headed by an entry give the natural chain unless they say otherwise; changes in a name come on top.
UniProt P84077: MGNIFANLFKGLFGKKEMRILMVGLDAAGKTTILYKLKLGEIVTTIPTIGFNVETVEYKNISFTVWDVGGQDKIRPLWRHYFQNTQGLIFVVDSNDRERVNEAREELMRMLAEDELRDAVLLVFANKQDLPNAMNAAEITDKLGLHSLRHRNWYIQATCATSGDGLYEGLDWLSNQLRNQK
UniProt P84085: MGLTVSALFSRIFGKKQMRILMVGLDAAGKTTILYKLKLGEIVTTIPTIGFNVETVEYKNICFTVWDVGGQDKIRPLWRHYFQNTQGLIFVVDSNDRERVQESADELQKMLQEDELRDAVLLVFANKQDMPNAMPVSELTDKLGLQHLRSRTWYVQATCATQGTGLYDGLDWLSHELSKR
UniProt P18085: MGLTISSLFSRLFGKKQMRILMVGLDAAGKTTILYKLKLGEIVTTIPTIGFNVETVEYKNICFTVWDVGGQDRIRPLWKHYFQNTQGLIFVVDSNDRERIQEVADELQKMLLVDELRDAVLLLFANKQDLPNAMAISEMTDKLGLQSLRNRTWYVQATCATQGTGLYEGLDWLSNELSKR

Columns and labels:
[1] = biological target: BIG2 (endogenous) (human (endogenous in HeLa)) (UniProt Q9Y6D5); test: co-IP; HeLa cells transfected with HA-tagged ARF mutants for 24 h; endogenous BIG2 immunoprecipitated from cell lysates; input and bound material immunoblotted with anti-HA
[2] = biological target: T1, GST chimera containing the DCB (amino acids 1–250) domain of BIG2 (UniProt Q9Y6D5); test: pull-down; lysates of HeLa cells transfected with HA-tagged ARF Q71L mutants for 24 h incubated with purified GST or GST chimeras of BIG2; input and bound material immunoblotted with anti-HA; only the target purified
T1 sequence: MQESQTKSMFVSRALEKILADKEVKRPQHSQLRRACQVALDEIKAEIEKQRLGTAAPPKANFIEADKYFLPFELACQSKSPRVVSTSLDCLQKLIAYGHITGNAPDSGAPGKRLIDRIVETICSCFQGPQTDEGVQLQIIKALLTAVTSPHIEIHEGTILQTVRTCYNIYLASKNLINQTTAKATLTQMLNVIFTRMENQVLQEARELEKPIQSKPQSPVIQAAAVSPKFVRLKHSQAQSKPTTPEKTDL

GST-BIG2/1–548 = biological target: T2, GST-BIG2/1–548 (UniProt Q9Y6D5); test: as above
T2 sequence: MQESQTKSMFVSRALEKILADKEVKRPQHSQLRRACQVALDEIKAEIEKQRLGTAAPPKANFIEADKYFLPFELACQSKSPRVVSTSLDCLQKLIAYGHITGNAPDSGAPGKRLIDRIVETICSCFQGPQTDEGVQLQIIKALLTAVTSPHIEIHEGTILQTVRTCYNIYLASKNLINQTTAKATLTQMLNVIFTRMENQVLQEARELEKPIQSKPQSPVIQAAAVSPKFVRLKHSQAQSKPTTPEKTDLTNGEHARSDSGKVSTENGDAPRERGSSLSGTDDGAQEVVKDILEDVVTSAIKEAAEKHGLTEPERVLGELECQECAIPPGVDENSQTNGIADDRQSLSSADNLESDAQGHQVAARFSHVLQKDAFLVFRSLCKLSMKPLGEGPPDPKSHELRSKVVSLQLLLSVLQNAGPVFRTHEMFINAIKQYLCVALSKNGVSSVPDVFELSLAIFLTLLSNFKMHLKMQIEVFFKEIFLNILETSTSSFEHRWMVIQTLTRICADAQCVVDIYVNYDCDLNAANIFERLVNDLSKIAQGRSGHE

binding [1] | binding [2] | binding (GST-BIG2/1–548) | Substance
no binding | no binding | binds weakly | ARF1/Q71L, HA-tagged (from UniProt P84077)
binds | binds | binds | ARF5/Q71L, HA-tagged (from UniProt P84085)
binds | binds | binds | ARF4/Q71L, HA-tagged (from UniProt P18085)
